Whole data set: some 33,000 sequences, median “E-score (-0.5 to 0.5)” near -0.0014, cut for the highest 2% near 0.25. The list shows a part of the results.
What follows are sequences tested against T1, Cad1 (UniProt P24813) (assay: PBM E-score (8-mer binding enrichment) (E-score (-0.5 to 0.5)); higher = stronger / more preferred TF binding). Conditions: protein concentration: 100 nM; construct: GST-full length.
T1 sequence: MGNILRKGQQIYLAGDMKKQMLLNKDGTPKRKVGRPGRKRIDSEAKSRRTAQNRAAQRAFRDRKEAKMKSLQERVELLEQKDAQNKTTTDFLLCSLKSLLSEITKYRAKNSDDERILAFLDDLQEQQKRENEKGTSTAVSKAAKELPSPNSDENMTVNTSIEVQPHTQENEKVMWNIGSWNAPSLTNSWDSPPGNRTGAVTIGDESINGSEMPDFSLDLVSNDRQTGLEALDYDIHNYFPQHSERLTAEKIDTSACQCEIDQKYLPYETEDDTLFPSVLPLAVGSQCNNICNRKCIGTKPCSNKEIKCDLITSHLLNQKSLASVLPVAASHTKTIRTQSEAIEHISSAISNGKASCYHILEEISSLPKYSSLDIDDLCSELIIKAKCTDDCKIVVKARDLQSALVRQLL
Procedure, shortened: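 PURExpress in vitro transcription/translation supplied GST-tagged yeast transcription factors, either full-length or DNA-binding domain. Applied at about 100-200 nM to universal all-10-mer Agilent arrays double-stranded by primer extension, the bound protein was detected with fluorescent anti-GST. E-scores, modified Wilcoxon-Mann-Whitney statistics, were given by the Universal PBM Analysis Suite to ungapped eight-base words pooled with their reverse complements after masliner normalisation.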

| Sequence | PBM E-score |
| --- | --- |
| AACCAGTT | 0.27 |
| AGCGCCGG | -0.0389 |
| AGCCTCGG | -0.0902 |
| ACGCGCGT | 0.217 |
| AAAGGGCT | -0.162 |
| TATTATAA | 0.185 |
| AGATGTCA | 0.0664 |
| ACGTACAC | 0.0387 |
| GTGATCAA | 0.15 |
| AGTGCGCG | -0.0357 |
| CCGCACGA | 0.0304 |
| ATAGCACG | -0.093 |
| CTAATGAG | -0.0812 |
| ATGTTACC | 0.00145 |
| AAAACGTT | 0.0386 |
| ACCGGATA | -0.00264 |
| CAATAGTC | -0.131 |
| CCCATGAC | -0.065 |
| AAGGTATT | 0.0376 |
| AAGCGGTG | -0.222 |
| GTGCGGGA | -0.0389 |
| ACGCGCCT | 0.0859 |
| CAAATAAA | 0.207 |
| GGCAGGCA | -0.186 |
| GTGGACTA | 0.144 |

| Sequence | PBM E-score |
| --- | --- |
| CCTCAAGC | -0.204 |
| CGGTAACA | 0.213 |
| CCTAGATA | -0.0467 |
| GCGAGCCC | -0.0806 |
| AATAGTCG | 0.167 |
| GCCCGTGA | -0.15 |
| GCCTAGCC | -0.104 |
| CGTGACCA | -0.0732 |
| CTGTAGGA | -0.029 |
| AAGAGGCG | -0.0844 |
| AGAGCCAC | -0.305 |
| AAGCACTT | -0.00317 |
| ACACAACT | 0.0775 |
| AGCATTGA | -0.0303 |
| AGGGAGCA | -0.368 |
| TTCGTAAA | -0.00446 |
| AGCTCATA | 0.0989 |
| AACTCACT | -0.0478 |
| GGCCAAAC | 0.00291 |
| CATTGGCA | 0.132 |
| AGTCTTGG | -0.128 |
| CGGCTAGC | 0.044 |
| TCCCCGCA | -0.0965 |
| AAGGGGAT | -0.12 |
| ATATTCGC | 0.163 |

| Sequence | PBM E-score |
| --- | --- |
| GTCCGAGA | 0.151 |
| CAAAGTTG | -0.0626 |
| AAGAACAT | 0.0815 |
| CACATCGA | -0.0624 |
| CCCCCTAG | -0.363 |
| ACGCGCAG | 0.0787 |
| GAAATCGC | -0.00585 |
| AACTGTTC | 0.122 |
| AGCCCCAA | -0.0194 |
| CCACACTA | 0.183 |
| CCTATGTC | -0.123 |
| AATCCAGC | -0.0176 |
| GATACCCC | -0.0835 |
| ACTCATCT | 0.0552 |
| CTGGAGAA | -0.206 |
| CAATTCGG | 0.031 |
| CAGAAAAG | 0.0397 |
| AAATCTCC | -0.193 |
| AAGTCGAT | 0.0428 |
| CTGAATAC | 0.0231 |
| TCATGCAA | 0.0998 |
| AGCGATAC | 0.0765 |
| CAGATAGG | -0.199 |
| ACCAAAGC | -0.202 |
| AGGGTGGG | 0.0517 |

Exported in CSV form: entries from further up.
Sequence,PBM E-score
CCTATGTC,-0.123
AATCCAGC,-0.0176

(further entries)

| Sequence | PBM E-score |
| --- | --- |
| ACGCGTGC | 0.14 |
| AGAGCGAT | -0.12 |
| ATCTCAGG | -0.0169 |
| AGCCAACA | -0.0383 |
| AGCCGGCA | 0.128 |
| CATGTTAG | -0.0341 |
| ATGATTTG | 0.137 |
| CCTACAAC | 0.112 |
| GCACGTCA | -0.023 |
| ATTTGTAG | 0.0654 |
| GCCACACC | -0.0071 |
| ATCACGTA | -0.0221 |
| TGGTACAA | 0.0909 |
| ACTAATCC | 0.242 |
| CGGGAGGC | -0.234 |
| ATTGGATC | 0.0773 |
| AACCGCGG | 0.224 |
| CTGAGTTA | -0.0218 |
| TATTATGA | -0.00765 |
| GCCTGCCC | -0.251 |
| GAGGGCCC | -0.322 |
| AAGCGCCT | -0.165 |
| CGAATTTA | 0.0741 |
| ACCCCTGC | -0.307 |
| GCAATGTA | 0.0443 |

| Sequence | PBM E-score |
| --- | --- |
| GCATTGGC | -0.14 |
| TAGGCATA | -0.0108 |
| CACTTTGA | -0.149 |
| CCCTCCAA | -0.119 |
| ACTATCTG | 0.0525 |
| AAGTGCAT | -0.00768 |
| ACCAGAAA | -0.193 |
| AGGCTCAT | -0.244 |
| ACCTGTAA | 0.00028 |
| CCCAGTAA | -0.00977 |
| ACAGAAAT | 0.00754 |
| TCGAAGAA | -0.0403 |
| ACATCGAG | -0.161 |
| TTGTAAAA | -0.162 |
| GCGTTAAC | 0.257 |
| CTTTATGC | 0.104 |
| AAATTGGC | 0.00922 |
| AACGGCTG | -0.0519 |
| AGCGCGAG | 0.0178 |
| AAGCCACG | -0.0394 |
| CCATACAC | 0.0649 |
| CGAGATAG | -0.0223 |
| TAATCCGA | 0.111 |
| CTTAAAAG | -0.118 |
| ACAAGATG | -0.00425 |

Reprinted at random: four entries already listed, in no set order.

| Sequence | PBM E-score |
| --- | --- |
| CACTTTGA | -0.149 |
| AAGCCACG | -0.0394 |
| ACCAGAAA | -0.193 |
| GCATTGGC | -0.14 |

Further results.

| Sequence | PBM E-score |
| --- | --- |
| ATTCGCAG | 0.162 |
| ACAAGGAG | -0.0542 |
| AAGTTAGA | 0.0486 |
| TCTGCTAA | -0.0568 |
| ATTAATCC | 0.161 |
| CCCACGCA | -0.0746 |
| ACGTGGTC | -0.104 |
| AGTTAATG | 0.0921 |
| ACTGGATA | 0.102 |
| CTTGCTAC | -0.0445 |
| ATGTAGGG | -0.133 |
| ACACTTAA | 0.0626 |
| AACCCCGT | -0.0838 |
| GCCTAGAC | -0.191 |
| CAGTATAA | 0.00832 |
| AAACAGTC | -0.11 |
| AGCGAATC | 0.091 |
| GATACTCC | 0.00922 |
| ACATTGCC | 0.0252 |
| CGGGAGAG | -0.269 |
| TCGTTTCA | 0.207 |
| CGAGTCGA | 0.217 |
| CTTGACGA | -0.189 |
| GATACCAA | 0.138 |
| AAAGTATG | -0.136 |

| Sequence | PBM E-score |
| --- | --- |
| CAAAAAAG | 0.164 |
| ACGTGGTA | 0.0659 |
| CTCGCAAC | -0.114 |
| GCCTACGC | -0.181 |
| AATAATAG | 0.077 |
| CATCGCGC | 0.051 |
| CGGCTTAC | 0.24 |
| AAGGAAAT | -0.036 |
| ATCTGTCC | -0.0748 |
| AAGAACAG | 0.00311 |
| CGAGAGTC | -0.149 |
| AGTTGTAC | -0.164 |
| CGCAGCAG | 0.0647 |
| GTGCCGAA | -0.0386 |
| AGGCAGGA | -0.2 |
| GACAGCAC | 0.0818 |
| GACAGAAA | 0.0205 |
| AGCGGGTC | -0.158 |
| CAAAGAAG | -0.0465 |
| CCATGGAG | -0.156 |
| ATATGGGA | -0.132 |
| CCTAGCCA | -0.00624 |
